In article PMC2856662:

Experiments:
Assay in all cases: pull-down; GST fusion proteins of CXCR2-CTD on glutathione beads mixed with 293-parental cell lysates (1 mg total protein) over-expressing HA-LASP-1 or its HA-tagged domains, 1 h at 4°C; anti-HA blot; only the target purified
[1] = target: GST-CXCR2 (318-355) (human)
[2] = target: GST-CXCR2-311-330 (first half of the CTD) (human)
[3] = target: GST-CXCR2-311-355 (full length WT carboxyl-terminal domain) (human)

binding [1]: binds
binding [2]: binds
binding [3]: binds
B1: HA-LASP-1 (full length, over-expressed in 293-parental cells) (protein, UniProt Q14847 1-261)
chain: MNPNCARCGKIVYPTEKVNCLDKFWHKACFHCETCKMTLNMKNYKGYEKKPYCNAHYPKQSFTMVADTPENLRLKQQSELQSQVRYKEEFEKNKGKGFSVVADTPELQRIKKTQDQISNIKYHEEFEKSRMGPSGGEGMEPERRDSQDGSSYRRPLEQQQPHHIPTSAPVYQQPQQQPVAQSYGGYKEPAAPVSIQRSAPGGGGKRYRAVYDYSAADEDEVSFQDGDTIVNVQQIDDGWMYGTVERTGDTGMLPANYVEAI

Results are given in words; binding and its absence hold for the method and conditions named. Binding seen in cells or lysates may run through a third protein. Binding calls can cover weak binding; strength is not graded here. Where a sequence is shown, tags or fusion partners need not be part of it.
